# Source: the supplement of paper PMC3334620
# In all, about 33,000 sequences were measured (“E-score (-0.5 to 0.5)”: median about -0.0014, highest 2% from about 0.25 on). Some of the results follow.
# Molecular target: T1, Cad1 (UniProt P24813)
# T1 sequence: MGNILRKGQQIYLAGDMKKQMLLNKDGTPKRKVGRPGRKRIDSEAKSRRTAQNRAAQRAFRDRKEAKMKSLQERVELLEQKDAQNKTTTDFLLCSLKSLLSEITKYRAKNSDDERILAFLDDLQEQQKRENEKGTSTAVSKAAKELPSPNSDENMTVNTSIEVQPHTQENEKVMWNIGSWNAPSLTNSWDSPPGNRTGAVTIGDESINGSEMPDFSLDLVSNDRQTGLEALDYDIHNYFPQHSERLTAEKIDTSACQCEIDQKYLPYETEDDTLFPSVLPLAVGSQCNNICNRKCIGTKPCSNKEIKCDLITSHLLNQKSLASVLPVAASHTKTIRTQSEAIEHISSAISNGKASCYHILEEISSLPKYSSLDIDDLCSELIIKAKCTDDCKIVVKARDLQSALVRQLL
# Experiment: PBM E-score (8-mer binding enrichment) (E-score (-0.5 to 0.5)); higher = stronger / more preferred TF binding
# Settings: protein concentration: 100 nM; construct: GST-full length
# In short: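 For each ungapped eight-base word taken together with its reverse complement, the Universal PBM Analysis Suite assigned an E-score. Binding data came from GST-tagged yeast transcription factors, applied at about 100-200 nM, on universal all-10-mer Agilent arrays made double-stranded by primer extension. Fluorescent anti-GST marked bound protein, and scans were normalised with masliner.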
row,Sequence,PBM E-score
1,GATGTCAA,-0.115
2,TATCCGCA,0.149
3,GAGAATCA,-0.0529
4,CTTTTGAC,-0.196
5,AGAACAGA,0.00299
6,CGACCAAG,-0.114
7,TGGAAAAA,-0.0449
8,AGTACTAG,0.0451
9,CATGCTCC,-0.194
10,AGTGCGGG,0.00669
11,AGGGAATA,0.108
12,TATATATA,0.377
13,ATGCATGG,0.224
14,ACGTACGC,-0.0765
15,GTAAGTTA,0.0778
16,ATCTGGTA,0.139
17,CAAGCATC,-0.0225
18,AGACCTCC,-0.33
19,CTCGTCTC,0.0257
20,ACAAGGAC,-0.0567
21,CGTTATTA,0.202
22,GGAAAACC,-0.112
23,GCCCGTCA,-0.264
24,CTACATTC,-0.163
25,TGCTTTAA,0.034

row,Sequence,PBM E-score
1,GACGTTCA,-0.0546
2,GCGGCCCA,-0.154
3,ATTGGGAA,0.104
4,CTATTCCC,-0.159
5,GAGCCCTA,-0.254
6,ATCGTTCG,0.0847
7,CACGAATC,0.205
8,CGTATACA,0.0135
9,CCCTTACA,0.0712
10,CCGAGTGC,0.089
11,AATCCTGA,0.142
12,CATGTTCA,-0.0873
13,CATCCATC,-0.124
14,GCGTCGAC,0.252
15,GTTCTTGA,0.0467
16,TAGAGCCA,-0.227
17,CATGAGTC,0.12
18,AATGAATC,0.0171
19,CATTTTTA,-0.0201
20,CACTAATC,0.262
21,AGCTGCTA,0.148
22,GCTACGAC,0.0331
23,CACTTCTG,-0.0379
24,ACCGGCAG,-0.194
25,AACGACTC,-0.174

row,Sequence,PBM E-score
1,CAGCGCGC,0.203
2,GCTACACA,-0.108
3,CTGGAAAC,-0.00171
4,AGATGATA,0.137
5,AACCTAAA,0.176
6,CATTGCCG,0.0606
7,AGTAGACA,-0.117
8,CCCGTCAA,-0.194
9,CACACTTC,0.0239
10,AGGTACGA,-0.2
11,GAAGCCAC,-0.0422
12,GAAGCAGA,-0.0537
13,AAACAGCT,-0.0841
14,GATGAATA,0.193
15,AGTGGGTG,0.174
16,AACCCTGG,-0.00675
17,ACATATCT,0.192
18,ACTTAGCC,0.0594
19,AATGTGTG,0.106
20,CGCTGTTA,-0.0692
21,CCTTGACA,-0.082
22,CTTTTTGA,0.0534
23,AACAAAGG,0.0724
24,CCGACTTA,0.151
25,CCACCACA,-0.15

row,Sequence,PBM E-score
1,GTGTCGAA,-0.0248
2,AGAGTCAG,-0.12
3,ATTGTGTA,0.142
4,AGCAGGAG,-0.238
5,CACTTGCG,-0.0575
6,ACAAGCAG,-0.138
7,CAGTGGAG,-0.0533
8,CGGCTTCA,0.173
9,AGGCGTAG,-0.118
10,CGCTCGGC,0.0494
11,CCCGACCA,0.0324
12,ATGTGCGC,0.173
13,GTCCGCAC,0.0546
14,AATAGAAA,-0.0491
15,CACAAAGC,0.0826
16,ACGGACGT,-0.105
17,CAATTGCA,0.0314
18,GATGAGCA,0.1
19,TCTGTCCA,0.075
20,AGTCCCAT,-0.17
21,TCAGGGGA,-0.0758
22,AAATCTCG,0.157
23,CAGGAGTA,-0.0237
24,AGAGTTTC,-0.211
25,GAACCCTA,-0.0855

row,Sequence,PBM E-score
1,CGGATTTC,-0.0539
2,CCCCGCAA,0.145
3,CCACCTTC,-0.229
4,CAGTGAGG,-0.219
5,GGTTCGAA,0.175
6,CCTCTCAA,-0.0605
7,GATTGAAC,0.0844
8,ACGATATC,0.119
9,CCCTTCCA,-0.233
10,AACCCCGC,-0.159
11,AATGCTCG,0.0962
12,CAAAAACA,0.0371
13,AATTGTTA,0.0493
14,CAATAAAC,0.161
15,ACCCAACT,0.0764
16,ATTGGTAC,0.0215
17,ACCGATCA,0.168
18,ACTTTGCA,0.176
19,CCGTGTTC,0.12
20,TACTCAAA,0.0262
21,CCAGCCTA,-0.107
22,AACGAATC,0.119
23,TACATGCA,0.0559
24,TGCGGAAA,-0.0159
25,CACTAGAG,0.0247

row,Sequence,PBM E-score
1,AGTCGCGG,-0.179
2,AACAGCGG,-0.0185
3,TCTCGAAA,0.106
4,GGTGGAAC,0.0269
5,CGGGCTAG,-0.0655
6,ACGTTACA,0.109
7,AAGTTAAT,0.13
8,AAGTCCCG,-0.0615
9,AAATTGTC,0.0649
10,ACGAGAAA,0.111
11,AGCTTTGC,-0.073
12,GAGCCTCC,-0.22
13,TAGATGCA,0.0548
14,ACTGTTCC,-0.00445
15,ACATATCC,0.161
16,ACATGAAG,0.0159
17,CGCCCCAG,-0.125
18,CCTTGATC,0.0457
19,TTATATAA,0.427
20,GAGCATGC,-0.0646
21,AGCGGCGG,0.0804
22,AGCATATA,0.0244
23,CACAATGG,0.14
24,CATCATTA,0.235
25,AGATACAA,0.256

# Exported as tab-separated lines: entries from further up
row	Sequence	PBM E-score
1	GATGTCAA	-0.115
2	TATCCGCA	0.149
5	AGAACAGA	0.00299
7	TGGAAAAA	-0.0449
13	ATGCATGG	0.224
6	ATCGTTCG	0.0847
12	CATGTTCA	-0.0873
15	GTTCTTGA	0.0467
25	AACGACTC	-0.174
2	GCTACACA	-0.108
7	AGTAGACA	-0.117
8	CCCGTCAA	-0.194
10	AGGTACGA	-0.2
11	GAAGCCAC	-0.0422
12	GAAGCAGA	-0.0537
15	AGTGGGTG	0.174
22	CTTTTTGA	0.0534
1	GTGTCGAA	-0.0248
3	ATTGTGTA	0.142
6	ACAAGCAG	-0.138
8	CGGCTTCA	0.173
9	AGGCGTAG	-0.118
14	AATAGAAA	-0.0491
17	CAATTGCA	0.0314
21	TCAGGGGA	-0.0758
25	GAACCCTA	-0.0855
3	CCACCTTC	-0.229
4	CAGTGAGG	-0.219
9	CCCTTCCA	-0.233
10	AACCCCGC	-0.159
14	CAATAAAC	0.161
16	ATTGGTAC	0.0215
18	ACTTTGCA	0.176
9	AAATTGTC	0.0649
11	AGCTTTGC	-0.073

# (continued)

row,Sequence,PBM E-score
1,CTCTACAA,0.0426
2,GGGTCAGA,-0.253
3,AACCGCAC,0.082
4,CCAACTGC,-0.0739
5,ACAGCGGA,0.0263
6,AAGCGGGA,-0.0393
7,CACCGAGA,-0.19
8,GGTGCTAC,-0.16
9,CCGGATTA,0.16
10,AGCGGACC,-0.113
11,GATTAGAC,-0.0403
12,GCACATGC,-0.00748
13,GAGTAAGC,0.167
14,ATACTCAC,-0.111
15,ATGAGGGG,-0.15
16,CGTACATC,-0.0994
17,ACCCGCAT,-0.0504
18,ATTTTGTG,0.111
19,GGCGTCAA,0.0892
20,CCACAGCG,0.0303
21,GCCCGCCA,-0.0928
22,CAGCTTAG,0.0843
